This is an account of results in patent US20150299708, “CD133 APTAMERS FOR DETECTION OF CANCER STEM CELLS” (Deakin University, published 2015).

The data set concerns the target T1, CD133 (prominin-1) (Homo sapiens) (UniProt O43490).
T1 sequence (looked up, limits assumed): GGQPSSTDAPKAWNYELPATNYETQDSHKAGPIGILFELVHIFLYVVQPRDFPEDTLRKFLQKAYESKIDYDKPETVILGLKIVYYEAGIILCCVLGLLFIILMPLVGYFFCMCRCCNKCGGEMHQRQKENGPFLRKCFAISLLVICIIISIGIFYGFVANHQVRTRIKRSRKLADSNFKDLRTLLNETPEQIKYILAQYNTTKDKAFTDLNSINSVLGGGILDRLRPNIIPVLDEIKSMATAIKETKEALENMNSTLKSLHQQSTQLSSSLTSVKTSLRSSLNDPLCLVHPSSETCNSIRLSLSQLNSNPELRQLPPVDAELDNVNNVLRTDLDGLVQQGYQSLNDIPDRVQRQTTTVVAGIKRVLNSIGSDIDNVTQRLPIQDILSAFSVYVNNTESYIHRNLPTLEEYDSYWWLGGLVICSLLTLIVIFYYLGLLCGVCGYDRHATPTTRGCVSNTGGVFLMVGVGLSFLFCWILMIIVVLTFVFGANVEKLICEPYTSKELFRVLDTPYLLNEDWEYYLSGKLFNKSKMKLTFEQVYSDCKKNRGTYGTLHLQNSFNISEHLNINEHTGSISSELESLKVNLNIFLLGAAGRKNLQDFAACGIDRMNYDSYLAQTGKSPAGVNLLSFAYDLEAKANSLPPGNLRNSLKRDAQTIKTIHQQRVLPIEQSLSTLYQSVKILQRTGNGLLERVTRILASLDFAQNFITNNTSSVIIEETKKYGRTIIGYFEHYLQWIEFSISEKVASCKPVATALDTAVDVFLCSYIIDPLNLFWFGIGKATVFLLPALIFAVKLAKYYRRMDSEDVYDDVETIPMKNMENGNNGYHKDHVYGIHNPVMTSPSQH
Put plainly: flow cytometry. Conditions: 2'-F pyrimidines, protein on the cell surface, label: 3'-FITC.

The mark [1] stands for this setting: truncated clone, variant of CD133-1.

Where cells or extracts were used, other partners may take part. Protein sequences can lack the tags named with them.

As for “GAGACAAGAAUAAACGCUCAAGGAAAGCGCUUAUUGUUUGCUAUGUUAGAACGUAUACUAUUUCGACAGGAGGCUCACAACAGGC [CD133-2]”, the binding result (transfected vs non-transfected HEK293T, truncation to CD133-2-1 reduced Kd, on ice) is recorded as “binds”. Take “GAGACAAGAAUAAACGCUCAACCCACCCUCCUACAUAGGGAGGAACGAGUUACUAUAGAGCUUCGACAGGAGGCUCACAAC [CD133-1]”: under “transfected vs non-transfected HEK293T, Kd not given, on ice, DPBS + MgCl2”, the binding result is reported as “binds”. Turning to CCACCCUCCUACAUAGGGUGG [CD133-1-2-1], the binding result under setting [1] is “binds”. The same measure, in the same setting: then “GCUCAACCCACCCUCCUACAUAGGGAGGAACGAGU [CD133-1-2]”, with “binds”; and “GAGACAAGAAUAAACGCUCAACCCACCCUCCUACAUAGGGAGGAACGAGUUACUAUAG [CD133-1-1]”, with “binds”.
